# Test results reported in PubChem BioAssay AID2685 (National Center for Advancing Translational Sciences (NCATS), 2010).
# The list shows a part of the results. Further columns of the screen follow, without active or inactive calls. Most of these compounds were active or inconclusive in the main read-out, so they are no random draw. Words in brackets tell the shape of the fitted curve; partial curves, single points and poor fits give uncertain potencies.
# Assay: qHTS Assay for Lipid Storage Modulators in Drosophila S3 Cells;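 as to cell number change: cells counted by Cell Tracker Red CMTPX staining in the red channel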
# Conditions: BODIPY lipid droplet fluorescence, 18-24 h; for cell number change: measured here: cell count max response, cells fed with added oleic acid
# Procedure, shortened: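 Laser-scanning cytometry quantifies lipid droplet accumulation (500–530 nm total intensity; droplet/cell object ratio) in oleic acid-fed (400 uM added) Drosophila S3 cells treated with a concentration series. 20 uM Triacsin C defined 100% inhibition.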
# [1] = measured here: lipid fluorescence (Fed channel) AC50, cells fed with added oleic acid
# [2] = measured here: cell number channel AC50, cells fed with added oleic acid
SMILES,cell number change,AC50 [1],AC50 [2]
CCOC(=O)CSC1=C(C#N)C(=O)NC(c2ccc(OC)cc2)S1 (stereo not drawn),-21.5%,"18.4 µM [falling, partial curve]",
Nc1nc(N2CCN(C(=O)c3ccco3)CC2)nc2ccc(Br)cc12,21.3%,"6.51 µM [rising, single point]","2.31 µM [rising, single point]"
C=CCn1c(=NC(=O)c2cccs2)sc2cccc(OC)c21,0.201%,"0.184 µM [rising, full curve, poor fit]",
COc1ccc(-c2ccc(-c3noc(C(C)C)n3)c(OC)n2)cc1,-17.8%,,
COc1ccc(N(Cc2ccccc2)N=O)cc1,23.2%,"0.58 µM [falling, single point]",
Cc1c(NC(=S)NC(=O)Cc2ccccc2)cccc1C(=O)O,40%,,
COc1ccc(CC(=O)O/N=C(\N)Cc2ccc([N+](=O)[O-])cc2)cc1,2.3%,,
COc1ccc(CNC(=O)CCc2ccc(S(=O)(=O)N3CCCCCC3)cc2)cc1OC,,"32.6 µM [falling, single point]",
Cc1cc(C)n(-c2cc(N3CCN(C(=O)c4cccc(Br)c4)CC3)ccc2[N+](=O)[O-])n1,-31.1%,"7.31 µM [falling, partial curve, poor fit]","29.1 µM [falling, single point]"
O=C(O)CCc1ccc(-c2ccc(Cl)cc2)o1,-30.5%,"0.731 µM [falling, full curve]",
O=C1NC2(CCCCCC2)C(=O)N1Cc1ccc(F)cc1Cl,-2.94%,"6.51 µM [rising, single point]",
Cc1cc(NC(=O)CSCC(=O)OCc2nnc(-c3ccccc3)o2)no1,13%,"0.146 µM [rising, full curve, poor fit]",
Cc1cccn2c(=O)cc(CSc3nnc(NC(=O)COc4ccccc4)s3)nc12,21.1%,"20.6 µM [rising, single point]",
CC(=O)Nc1nnc(SCC(=O)NCC2CCCO2)s1 (stereo not drawn),,,"0.0164 µM [falling, full curve, poor fit]"
CCOc1ccc(-n2c(C)nc3cc(C(=O)NCc4ccco4)ccc32)cc1,22%,"29.1 µM [rising, single point]",
CCN(CC)S(=O)(=O)c1cccc(-c2nnc(SCCCC(=O)c3ccc(F)cc3)o2)c1,-27.6%,,
COc1ccccc1N(CC(=O)NC1CCCC1)C(=O)CCC(=O)Nc1ccccn1,5.22%,"1.03 µM [rising, single point]",
COc1cccc(C(C#N)N2CCCCC2)c1O (stereo not drawn),-4.88%,"14.6 µM [rising, partial curve, poor fit]",
COc1ccc(OC)c(NC(=O)c2[nH]c(C)c(C(C)=O)c2C)c1,55.2%,"0.651 µM [rising, full curve]","3.26 µM [rising, partial curve]"
C=CCNC(=S)NN(c1ccccc1)c1ccccc1,-19.6%,,
CCCNC(=O)/C=C/c1ccc(C(C)C)cc1,15.5%,"0.164 µM [rising, partial curve, poor fit]",

# Taken from above.
# cell number change, C=CCNC(=S)NN(c1ccccc1)c1ccccc1 reads -19.6%
# cell number change, Cc1cccn2c(=O)cc(CSc3nnc(NC(=O)COc4ccccc4)s3)nc12 reads 21.1%
# cell number change, Cc1c(NC(=S)NC(=O)Cc2ccccc2)cccc1C(=O)O reads 40%

# Rewritten as tab-separated lines: entries from further up.
SMILES	cell number change	AC50 [1]	AC50 [2]
C=CCNC(=S)NN(c1ccccc1)c1ccccc1	-19.6%		
CCCNC(=O)/C=C/c1ccc(C(C)C)cc1	15.5%	0.164 µM [rising, partial curve, poor fit]	

# Continuation:

SMILES,cell number change,AC50 [1],AC50 [2]
Cc1ccc2nc(C)c(C(=O)N/N=C/c3ccccc3[N+](=O)[O-])cc2c1,,"0.0058 µM [rising, full curve, poor fit]","6.51 µM [falling, single point]"
Cc1c(CCC(=O)O)c(=O)oc2cc(OCc3ccccc3Br)ccc12,25.5%,"29.1 µM [rising, single point]",
COC(=O)c1ccc(NC(=O)CCN2C(=O)NC(C)(C)C2=O)cc1,7.22%,"3.26 µM [falling, single point]",
O=C(COC(=O)Cc1ccc(Br)cc1)Nc1ccc(N2CCOCC2)cc1,-24.2%,"29.1 µM [falling, single point]",
N#CC1(NC(=O)COC(=O)c2ccccc2SCC(=O)N2CCCC2)CCCCC1,2.16%,,
COc1ccc(OC)c(-n2c(N)c(C(=O)NCC3CCCO3)c3nc4ccccc4nc32)c1 (stereo not drawn),27%,"2.59 µM [rising, partial curve]",
CCOc1cc(/C=C2/SC(=S)N(CC3CCCO3)C2=O)ccc1O (stereo not drawn),-13.4%,"4.11 µM [falling, full curve, poor fit]","2.91 µM [falling, single point]"
Cn1cccc1C(=O)C(=O)Nc1ccc(F)c(F)c1,-69.4%,,
CCCCn1c(N)c(N(CC(C)C)C(=O)c2ccncc2)c(=O)[nH]c1=O,-9.48%,"7.31 µM [falling, partial curve, poor fit]",
Cc1ccc(C2(C)NC(=O)N(CC(=O)NC(=O)NC3CCCC3)C2=O)cc1 (stereo not drawn),-10.8%,"29.1 µM [falling, single point]",
O=C(NCc1ccncc1)C1CCN(S(=O)(=O)c2ccc(Cl)c(C(F)(F)F)c2)CC1,,,"2.59 µM [rising, single point]"
COc1ccccc1C(C)N(C)Cc1nc(COc2ccccc2)no1 (stereo not drawn),8.96%,,
O=C(CCS(=O)(=O)c1ccccc1)Nc1nc(-c2ccc(F)cc2)cs1,-3.1%,"0.082 µM [rising, full curve, poor fit]",
Cc1cc(C(=O)Nc2cccc(S(=O)(=O)N3CCCC3)c2)c2ccccc2n1,8.73%,"0.58 µM [falling, single point]",
CCc1ccc(OCC(=O)NNC(=S)NC(=O)C2CCCCC2)c(Br)c1,-2.05%,,
NC(=O)CC(NC(=O)c1cccc(Br)c1)c1ccc(NC2CCCCCCC2)c([N+](=O)[O-])c1 (stereo not drawn),-41.6%,"0.651 µM [falling, full curve]","0.58 µM [falling, full curve]"
O=S(=O)(CCN1CCN(c2ccccc2O)CC1)c1cc(Cl)ccc1Cl,,"6.51 µM [falling, single point]",
COC(=O)[C@H]1Cc2cnoc2C[C@]1(C)C(=O)O,-17.6%,"3.66 µM [falling, full curve]",
C=CCS(=O)(=O)N1CCC(CCOc2ccccc2)(C(=O)OCC)CC1,-12.7%,"29.1 µM [falling, single point]",
CCOC(=O)c1c(NC(=O)CCNCc2ccco2)sc2c1CCC2,-13%,"3.26 µM [rising, single point]",
CC(C)(C)NC(=S)Nc1ccc(Br)cc1,-17.1%,"0.731 µM [falling, single point]",

SMILES,cell number change,AC50 [1],AC50 [2]
CCC1=NN2C(=N)/C(=C\c3cccn3-c3ccc(C)cc3C)C(=O)N=C2S1,64.7%,,"29.1 µM [rising, single point]"
CC1CCC(C(C)C)C(OC(=O)CSc2n[nH]c(=O)[nH]c2=O)C1 (stereo not drawn),4.14%,"3.66 µM [falling, single point]",
CCCCCNc1nc2ccccc2nc1NS(=O)(=O)c1cccs1,57.5%,"9.2 µM [rising, partial curve]","1.03 µM [rising, full curve]"
O=C(CCl)Nc1cn(-c2ccccc2)nc1-c1ccc(F)cc1,32.5%,"0.13 µM [rising, full curve, poor fit]",
CCC1CCc2sc(C(=O)N(C)CC(=O)Nc3ccc(OC)cc3)cc2C1 (stereo not drawn),-37.5%,,"29.1 µM [falling, partial curve, poor fit]"
CN(CC(=O)Nc1nc2ccccc2s1)S(=O)(=O)c1ccc(Cl)cc1,,"6.51 µM [rising, partial curve]","1.84 µM [rising, partial curve]"
O=C(Cc1ccc(F)cc1)Nc1cccc2cccnc12,33%,,"5.8 µM [rising, partial curve]"
COC(=O)CC1C(=O)NCCN1C(=O)c1cc(OC)c(OC)cc1OC (stereo not drawn),1.42%,,
CCC1(CC)N([O-])C(C)=C(c2ccccc2)[N+]1=O,-11.9%,"0.731 µM [falling, full curve, poor fit]",
CCN(c1ccccc1C)S(=O)(=O)c1nnc(NC(=O)c2ccco2)s1,-27.1%,"6.51 µM [falling, partial curve]",
COC(=O)c1cccc(NC(=O)Nc2ccc(Cl)c(Cl)c2)c1,-11.4%,"20.6 µM [rising, single point]",
C/C=C(/C)C(=O)OC(C)(C)[C@@H]1Cc2c(ccc3ccc(=O)oc23)O1,19%,"9.2 µM [rising, partial curve]",
CC(C)(C)C(=O)N1CCC(O)(CS(=O)(=O)Cc2ccccc2Cl)CC1,,"5.8 µM [rising, partial curve]","1.84 µM [rising, partial curve, poor fit]"
COCC(=O)Nc1ccc2nc3n(c(=O)c2c1)CCCCC3,-2.99%,,
CCCC(=O)Nn1cnc2c(c1=O)C1(CCCCC1)Cc1ccccc1-2,1.12%,,
O=C(NCCc1csc(-c2cccnc2)n1)c1ccc(Br)o1,,,"0.116 µM [rising, full curve, poor fit]"
Cc1ccc(NC(=S)NC(=O)c2ccc(-c3ccccc3)cc2)c(C)c1,-2.45%,,
CCCCCCNC(=O)N[C@H](C(=O)NCCC[C@H]1CN2C(=NC[C@H]2C)N1CCC(c1ccccc1)c1ccccc1)C(C)O (stereo partly drawn),-21.2%,,"2.31 µM [falling, full curve, poor fit]"
Cc1nnc2sc(SCC(=O)Nc3cccc(Cl)c3)nn2c1=O,-7.36%,,"1.46 µM [falling, full curve, poor fit]"
CC1CN(C(=O)c2cnn3c(C(F)F)cc(-c4ccccc4)nc23)CC(C)O1 (stereo not drawn),34.6%,"4.61 µM [rising, partial curve]","1.16 µM [rising, partial curve]"
